Reference: PubChem BioAssay AID743454 (Peter MacCallum Cancer Centre, 2014)

Aim: 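Genes whose loss kills vorinostat-resistant colon cancer cells under vorinostat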 (primary screen)
Cells: human HCT116-VR colon cancer cells, selected for vorinostat resistance
Reagent: siRNA pool against human genes, 40 nM siRNA pool
Time to read-out: vorinostat for 24 h, read-out about 72 h after transfection
Treatment: vorinostat at 2.5 µM final
Measurement: 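Two measures, CellTiter-Fluor viability and luminescent caspase 3/7 activity, each as fold change against same-plate mock wells, mean of duplicates, then screen-wide robust z-score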
Direction: viability robust z-score: higher = more viable cells than screen typical; caspase robust z-score: higher = more caspase 3/7 activity than screen typical
Active means: 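a knock-down is a hit when classed RV1 or RV2 for lowered viability, or CA1 or CA2 for caspase activation; those lethal without drug were dropped; hits were retested singly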
In all, the deposit lists about 18,000 reagents; shown is a random part of them. 450 of them (2.5%) count as active. 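Single biological run; no consistent viability z cut-off exists, so the class columns, not z-scores, define the calls.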 Entries without a mark were called inactive.

gene	PubChem SID	viability hit class	caspase hit class	viability robust z-score	caspase robust z-score
CATSPERT (GeneID 151254)	SID152146934	RV2 (reduced viability) (active)	no change	-3.19	2.3
CRYBG1 (GeneID 202)	SID152150262	no change	no change	0.94	0.97
LNX2 (GeneID 222484)	SID152156696	no change	no change	0.04	-0.62
TAF10 (GeneID 6881)	SID135622285	no change	no change	0.26	-0.28
RELL1 (GeneID 768211)	SID135625703	no change	no change	0.51	0.1
UNC119B (GeneID 84747)	SID135625427	no change	no change	0.31	-0.79
RNASEL (GeneID 6041)	SID56478962	no change	no change	0.16	1.52
FIGN (GeneID 55137)	SID152151499	no change	no change	0.34	0.94
SLC30A1 (GeneID 7779)	SID152148042	no change	no change	1.69	-0.19
HEPN1 (GeneID 641654)	SID135625421	no change	no change	0.15	-0.4
PRR23E (GeneID 285311)	SID152148467	no change	no change	0.63	-0.4
CCDC13 (GeneID 152206)	SID152148084	no change	no change	-0.42	3.86
NXT1 (GeneID 29107)	SID134321144	no change	no change	-1.72	2.25
CAMKK2 (GeneID 10645)	SID135620895	no change	no change	-1.19	0.22
PRRT2 (GeneID 112476)	SID135623036	no change	no change	-0.68	0.88
RP2 (GeneID 6102)	SID56479260	no change	no change	-0.63	-0.38
TRIM61 (GeneID 391712)	SID152156379	no change	no change	0.72	-0.12
EIF4ENIF1 (GeneID 56478)	SID134317468	no change	no change	0.76	0.76
CYP3A43 (GeneID 64816)	SID135621737	no change	no change	1.84	0.2
FSAF1 (GeneID 128061)	SID152150089	no change	no change	-1.32	0.84
ADORA1 (GeneID 134)	SID135620982	no change	no change	-1.33	1
C1orf159 (GeneID 54991)	SID134326891	no change	no change	-0.77	-0.38
DFFB (GeneID 1677)	SID152156608	no change	no change	0.68	-0.32

3 of these entries, set out differently:
HEPN1 (GeneID 641654) [SID135625421] — viability hit class = no change; caspase hit class = no change; viability robust z-score = 0.15; caspase robust z-score = -0.4
PRR23E (GeneID 285311) [SID152148467] — viability hit class = no change; caspase hit class = no change; viability robust z-score = 0.63; caspase robust z-score = -0.4
CCDC13 (GeneID 152206) [SID152148084] — viability hit class = no change; caspase hit class = no change; viability robust z-score = -0.42; caspase robust z-score = 3.86
